# These are yes or no findings as the source states them, for the method shown. Binding seen in cells or lysates may run through a third protein. Some binding calls cover weakened binding; strength is not graded here. Where a sequence is shown, tags or fusion partners need not be part of it.
# T1: Mtb FecB-FLAG (Rv3044) (M. tuberculosis) (UniProt A5U758)
# T1 sequence: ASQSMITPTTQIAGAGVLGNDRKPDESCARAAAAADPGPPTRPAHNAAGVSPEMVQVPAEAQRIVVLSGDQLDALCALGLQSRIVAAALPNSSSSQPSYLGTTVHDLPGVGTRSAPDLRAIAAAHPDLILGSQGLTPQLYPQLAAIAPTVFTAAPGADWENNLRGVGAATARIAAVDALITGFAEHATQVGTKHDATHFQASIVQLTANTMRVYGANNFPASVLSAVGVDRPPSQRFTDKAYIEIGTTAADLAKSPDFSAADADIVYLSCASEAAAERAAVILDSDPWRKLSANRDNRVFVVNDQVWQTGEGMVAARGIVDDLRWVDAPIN
# T2: Mtb MmpS5-HA (Rv0677c) (M. tuberculosis) (UniProt P9WJS7)
# T2 sequence: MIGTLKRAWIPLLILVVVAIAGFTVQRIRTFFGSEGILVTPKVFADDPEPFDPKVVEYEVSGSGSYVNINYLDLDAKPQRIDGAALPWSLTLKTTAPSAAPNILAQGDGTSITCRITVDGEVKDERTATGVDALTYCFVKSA
# B1: Mtb MmpS5-HA (Rv0677c) (protein, UniProt P9WJS7 1-142)
# chain: T2 sequence
# B2: Mtb FecB-FLAG (Rv3044) (protein, UniProt A5U758 29-359)
# chain: T1 sequence
# How the values were obtained:
# [1] = target: T1, Mtb FecB-FLAG (Rv3044) (M. tuberculosis); assay: co-IP
# [2] = target: T2, Mtb MmpS5-HA (Rv0677c) (M. tuberculosis); assay: co-IP
Binder,binding [1],binding [2]
B1,binds,–
B2,–,binds

# Reference: publication PMC10553834, “Differentiating the roles of Mycobacterium tuberculosis substrate binding proteins, FecB and FecB2, in iron uptake” (PLOS Pathogens, 2023)
